Earlier results as cited in patent US8039514B2, “Sulfonamide compounds and use thereof” (Asahi Kasei Pharma Corporation, priority 2008, dated 2011).

Conditions: PTH 20 μg subcutaneous everyday; ALN 10 mg oral everyday; cited from earlier work

NCCCC(O)(P(=O)(O)O)P(=O)(O)O [ALN, alendronate]
increase of bone mineral density of lumbar spine 18 months after the administration: 5.5%
